The other results are listed elsewhere or left out. The data scatter; read single values as rough.

By UniProt entry, the sequences of proteins in these tests, tags left out. Where a name states a change or a piece, a line headed by the entry shows the natural chain unless it says otherwise. Residues count along the entry.
UniProt Q7Z4H7: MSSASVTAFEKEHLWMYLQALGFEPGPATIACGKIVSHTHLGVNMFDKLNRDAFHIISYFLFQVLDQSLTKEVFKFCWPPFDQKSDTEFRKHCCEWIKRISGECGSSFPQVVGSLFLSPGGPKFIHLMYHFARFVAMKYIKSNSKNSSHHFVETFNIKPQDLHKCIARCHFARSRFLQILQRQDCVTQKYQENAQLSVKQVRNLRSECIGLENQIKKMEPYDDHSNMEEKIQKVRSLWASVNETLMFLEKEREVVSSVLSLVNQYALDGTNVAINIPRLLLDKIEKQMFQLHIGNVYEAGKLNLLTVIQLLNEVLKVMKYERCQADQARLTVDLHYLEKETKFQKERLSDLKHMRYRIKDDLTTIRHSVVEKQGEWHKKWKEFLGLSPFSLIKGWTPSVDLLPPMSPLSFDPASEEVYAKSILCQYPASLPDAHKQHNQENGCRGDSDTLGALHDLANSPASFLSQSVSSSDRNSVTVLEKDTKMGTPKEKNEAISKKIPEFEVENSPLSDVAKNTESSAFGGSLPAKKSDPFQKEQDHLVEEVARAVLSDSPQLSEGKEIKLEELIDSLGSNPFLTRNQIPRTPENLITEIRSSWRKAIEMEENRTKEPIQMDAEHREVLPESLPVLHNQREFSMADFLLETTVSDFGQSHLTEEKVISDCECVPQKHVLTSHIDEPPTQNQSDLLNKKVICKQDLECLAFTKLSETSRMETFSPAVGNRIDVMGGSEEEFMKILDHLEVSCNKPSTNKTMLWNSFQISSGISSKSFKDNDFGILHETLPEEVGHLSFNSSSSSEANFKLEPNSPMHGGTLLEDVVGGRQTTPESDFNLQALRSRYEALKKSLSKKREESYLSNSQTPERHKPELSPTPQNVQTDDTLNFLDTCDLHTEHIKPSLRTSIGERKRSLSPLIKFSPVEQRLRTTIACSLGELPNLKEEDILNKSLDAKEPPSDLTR
UniProt Q9BXW7, 100-124: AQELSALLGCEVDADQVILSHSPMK
UniProt P04035: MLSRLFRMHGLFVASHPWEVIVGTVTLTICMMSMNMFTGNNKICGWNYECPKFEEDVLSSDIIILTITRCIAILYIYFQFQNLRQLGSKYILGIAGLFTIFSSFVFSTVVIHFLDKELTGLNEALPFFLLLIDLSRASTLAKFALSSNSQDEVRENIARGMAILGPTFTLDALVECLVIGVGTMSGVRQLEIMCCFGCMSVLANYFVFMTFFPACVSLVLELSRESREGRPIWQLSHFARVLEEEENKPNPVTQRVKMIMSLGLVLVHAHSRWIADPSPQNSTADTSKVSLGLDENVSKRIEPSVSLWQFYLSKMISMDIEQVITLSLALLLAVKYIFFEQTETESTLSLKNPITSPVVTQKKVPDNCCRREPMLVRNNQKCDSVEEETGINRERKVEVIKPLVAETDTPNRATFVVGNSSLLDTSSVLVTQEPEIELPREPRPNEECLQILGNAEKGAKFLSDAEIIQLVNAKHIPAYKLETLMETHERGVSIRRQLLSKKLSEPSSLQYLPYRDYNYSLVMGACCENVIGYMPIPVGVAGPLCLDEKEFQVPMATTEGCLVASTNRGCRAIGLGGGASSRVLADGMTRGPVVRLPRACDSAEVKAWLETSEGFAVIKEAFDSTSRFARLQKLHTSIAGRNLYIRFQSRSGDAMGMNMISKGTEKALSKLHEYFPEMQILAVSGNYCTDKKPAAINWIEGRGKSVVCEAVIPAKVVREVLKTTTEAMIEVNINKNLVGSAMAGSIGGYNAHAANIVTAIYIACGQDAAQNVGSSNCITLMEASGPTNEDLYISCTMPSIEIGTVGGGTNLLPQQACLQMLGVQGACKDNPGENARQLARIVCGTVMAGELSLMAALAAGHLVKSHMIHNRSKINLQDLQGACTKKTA
UniProt Q9Y450, whole entry, looked up: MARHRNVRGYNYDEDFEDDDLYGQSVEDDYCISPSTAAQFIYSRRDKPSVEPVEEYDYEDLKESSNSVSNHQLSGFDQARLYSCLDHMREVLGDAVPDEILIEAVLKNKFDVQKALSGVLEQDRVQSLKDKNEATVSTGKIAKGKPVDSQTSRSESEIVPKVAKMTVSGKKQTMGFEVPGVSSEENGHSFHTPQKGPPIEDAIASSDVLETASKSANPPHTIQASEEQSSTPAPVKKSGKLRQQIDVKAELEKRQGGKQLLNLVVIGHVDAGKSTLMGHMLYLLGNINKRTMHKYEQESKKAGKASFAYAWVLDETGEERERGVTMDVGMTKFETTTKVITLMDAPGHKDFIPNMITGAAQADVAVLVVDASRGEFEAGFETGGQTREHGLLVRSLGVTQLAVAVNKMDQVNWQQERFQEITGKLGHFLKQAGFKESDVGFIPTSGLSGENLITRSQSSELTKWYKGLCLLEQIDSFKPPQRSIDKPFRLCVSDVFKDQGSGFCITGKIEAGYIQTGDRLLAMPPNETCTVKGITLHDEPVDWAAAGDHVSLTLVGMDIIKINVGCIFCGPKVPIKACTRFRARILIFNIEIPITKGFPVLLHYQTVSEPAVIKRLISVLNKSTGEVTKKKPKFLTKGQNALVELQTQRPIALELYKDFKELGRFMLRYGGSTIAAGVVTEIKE
UniProt P51610: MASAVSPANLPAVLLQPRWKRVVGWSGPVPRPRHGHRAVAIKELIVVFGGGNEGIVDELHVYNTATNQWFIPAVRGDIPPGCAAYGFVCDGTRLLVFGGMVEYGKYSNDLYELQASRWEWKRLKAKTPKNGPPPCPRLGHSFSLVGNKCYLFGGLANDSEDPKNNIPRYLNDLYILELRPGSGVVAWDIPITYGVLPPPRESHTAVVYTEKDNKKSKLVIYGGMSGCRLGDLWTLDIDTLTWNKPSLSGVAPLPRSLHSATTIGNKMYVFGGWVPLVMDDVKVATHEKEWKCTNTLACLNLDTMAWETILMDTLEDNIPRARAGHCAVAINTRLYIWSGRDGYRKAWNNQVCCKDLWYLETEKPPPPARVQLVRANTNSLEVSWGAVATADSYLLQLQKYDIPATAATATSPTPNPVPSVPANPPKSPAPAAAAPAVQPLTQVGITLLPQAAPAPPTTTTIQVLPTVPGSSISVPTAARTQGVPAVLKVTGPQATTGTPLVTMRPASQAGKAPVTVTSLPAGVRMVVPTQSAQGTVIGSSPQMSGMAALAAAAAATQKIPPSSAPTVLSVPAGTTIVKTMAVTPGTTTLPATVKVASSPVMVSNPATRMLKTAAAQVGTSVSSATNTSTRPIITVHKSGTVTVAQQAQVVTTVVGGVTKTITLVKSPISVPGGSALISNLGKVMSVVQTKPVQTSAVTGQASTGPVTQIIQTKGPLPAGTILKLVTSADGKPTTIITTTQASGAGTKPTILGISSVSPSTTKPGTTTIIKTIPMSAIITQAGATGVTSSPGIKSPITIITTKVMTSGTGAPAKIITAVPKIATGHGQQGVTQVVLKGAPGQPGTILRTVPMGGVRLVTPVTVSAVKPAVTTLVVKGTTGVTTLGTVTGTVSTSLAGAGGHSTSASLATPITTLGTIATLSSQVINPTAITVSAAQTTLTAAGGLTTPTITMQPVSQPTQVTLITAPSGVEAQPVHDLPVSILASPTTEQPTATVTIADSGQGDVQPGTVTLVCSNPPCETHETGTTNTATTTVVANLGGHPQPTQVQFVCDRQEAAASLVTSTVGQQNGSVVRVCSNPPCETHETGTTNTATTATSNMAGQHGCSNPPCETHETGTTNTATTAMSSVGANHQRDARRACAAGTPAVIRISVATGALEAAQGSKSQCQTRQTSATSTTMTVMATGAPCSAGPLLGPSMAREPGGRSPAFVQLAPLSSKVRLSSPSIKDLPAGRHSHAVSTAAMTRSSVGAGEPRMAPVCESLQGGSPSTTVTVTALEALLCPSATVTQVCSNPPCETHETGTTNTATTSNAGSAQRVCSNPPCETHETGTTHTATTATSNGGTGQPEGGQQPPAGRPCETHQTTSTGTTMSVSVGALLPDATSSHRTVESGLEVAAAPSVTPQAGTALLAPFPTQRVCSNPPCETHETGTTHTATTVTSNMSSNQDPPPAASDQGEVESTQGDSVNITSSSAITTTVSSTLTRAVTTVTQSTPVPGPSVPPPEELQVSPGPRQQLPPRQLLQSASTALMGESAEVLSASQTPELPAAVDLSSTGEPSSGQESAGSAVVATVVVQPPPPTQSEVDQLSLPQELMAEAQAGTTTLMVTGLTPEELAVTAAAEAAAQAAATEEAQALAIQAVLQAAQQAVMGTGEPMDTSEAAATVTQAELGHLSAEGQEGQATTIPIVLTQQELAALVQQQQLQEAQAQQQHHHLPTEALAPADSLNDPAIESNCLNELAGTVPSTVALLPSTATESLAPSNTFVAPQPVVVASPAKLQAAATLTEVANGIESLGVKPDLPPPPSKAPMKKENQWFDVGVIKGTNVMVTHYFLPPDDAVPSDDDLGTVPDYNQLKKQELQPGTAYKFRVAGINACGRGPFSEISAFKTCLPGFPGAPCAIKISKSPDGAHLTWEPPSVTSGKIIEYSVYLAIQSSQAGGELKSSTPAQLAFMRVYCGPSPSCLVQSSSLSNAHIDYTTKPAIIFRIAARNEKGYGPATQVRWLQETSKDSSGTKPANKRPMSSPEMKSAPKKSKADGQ
UniProt P78347: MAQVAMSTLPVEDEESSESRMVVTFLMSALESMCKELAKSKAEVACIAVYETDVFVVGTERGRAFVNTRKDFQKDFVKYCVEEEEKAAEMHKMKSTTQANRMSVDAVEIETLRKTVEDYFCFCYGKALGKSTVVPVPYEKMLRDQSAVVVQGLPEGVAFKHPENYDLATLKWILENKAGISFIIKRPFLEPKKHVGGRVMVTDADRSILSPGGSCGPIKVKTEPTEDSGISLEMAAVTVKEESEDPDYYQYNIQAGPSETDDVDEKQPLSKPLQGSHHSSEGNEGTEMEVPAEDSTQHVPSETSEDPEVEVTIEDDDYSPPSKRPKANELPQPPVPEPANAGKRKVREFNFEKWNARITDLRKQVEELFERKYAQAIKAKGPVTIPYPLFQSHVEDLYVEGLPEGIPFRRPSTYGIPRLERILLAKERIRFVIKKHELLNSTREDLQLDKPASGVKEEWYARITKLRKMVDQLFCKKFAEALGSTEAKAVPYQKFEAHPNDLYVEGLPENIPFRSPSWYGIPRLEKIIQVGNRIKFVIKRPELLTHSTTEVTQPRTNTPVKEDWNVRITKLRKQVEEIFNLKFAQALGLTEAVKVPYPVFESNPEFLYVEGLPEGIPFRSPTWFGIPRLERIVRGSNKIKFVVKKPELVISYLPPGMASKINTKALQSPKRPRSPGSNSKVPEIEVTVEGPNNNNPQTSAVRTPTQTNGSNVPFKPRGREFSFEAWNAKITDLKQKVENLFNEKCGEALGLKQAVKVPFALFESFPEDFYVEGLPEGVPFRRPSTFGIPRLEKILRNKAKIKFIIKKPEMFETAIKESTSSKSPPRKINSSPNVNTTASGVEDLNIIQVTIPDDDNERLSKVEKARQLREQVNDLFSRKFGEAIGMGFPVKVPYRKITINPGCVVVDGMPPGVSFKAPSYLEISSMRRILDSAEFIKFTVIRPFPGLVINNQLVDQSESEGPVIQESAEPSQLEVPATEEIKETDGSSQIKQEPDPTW
UniProt Q9UKN8: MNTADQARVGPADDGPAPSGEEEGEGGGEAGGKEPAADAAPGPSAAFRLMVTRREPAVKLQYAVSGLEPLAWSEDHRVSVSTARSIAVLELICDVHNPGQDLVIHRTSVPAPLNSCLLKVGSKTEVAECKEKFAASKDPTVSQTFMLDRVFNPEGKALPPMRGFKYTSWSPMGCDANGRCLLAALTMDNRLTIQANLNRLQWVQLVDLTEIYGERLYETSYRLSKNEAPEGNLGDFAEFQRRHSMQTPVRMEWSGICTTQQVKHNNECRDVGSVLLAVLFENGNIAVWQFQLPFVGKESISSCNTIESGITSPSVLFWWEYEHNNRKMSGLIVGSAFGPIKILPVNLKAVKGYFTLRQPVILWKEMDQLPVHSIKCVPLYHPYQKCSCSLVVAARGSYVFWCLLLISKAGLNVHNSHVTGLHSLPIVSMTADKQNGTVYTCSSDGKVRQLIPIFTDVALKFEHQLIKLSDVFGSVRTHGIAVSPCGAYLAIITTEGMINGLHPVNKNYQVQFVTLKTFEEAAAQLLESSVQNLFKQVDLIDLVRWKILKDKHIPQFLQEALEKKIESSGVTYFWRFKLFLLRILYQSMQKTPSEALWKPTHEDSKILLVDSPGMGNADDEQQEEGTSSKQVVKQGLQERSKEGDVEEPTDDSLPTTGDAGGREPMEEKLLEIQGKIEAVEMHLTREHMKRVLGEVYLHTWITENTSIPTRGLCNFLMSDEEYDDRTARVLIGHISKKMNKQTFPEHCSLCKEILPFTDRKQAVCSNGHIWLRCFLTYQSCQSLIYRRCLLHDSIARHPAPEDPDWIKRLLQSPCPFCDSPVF

Compound in the first assay: ClCC(=O)N[C@H]1CCCc2ccccc12
The experiment in a line: log2 mean competition ratio of IA-DTB cysteine labelling (DMSO/compound) (log2 ratio); higher = stronger cysteine engagement by compound. The settings on record: 50 µM; treatment time: 4 h; cell line lysate: HEK293T. How it is done: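 IA-DTB competitive cysteine chemoproteomics in HEK293T RIPA lysate. Lysates were treated with compound 29 or 30 at 50 or 200 µM for 4 h, then IA-DTB (500 µM, 1 h), trypsin-digested, NeutrAvidin-enriched and analysed by diaPASEF. Competition ratio = intensity DMSO / intensity compound (n=4 treated, n=64 DMSO); binding: mean log2 CR ≥ 1 and p ≤ 0.05 plus QC filters. Target is the cysteine site.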
HAUS6 C699 (UniProt Q7Z4H7): the “log2 mean competition ratio” value amounted to 0.0511.
Regarding HERC5 C220 (UniProt Q9UII4), the “log2 mean competition ratio” value is -0.335.
On to HMGCS1 C12 (UniProt Q01581), for which the “log2 mean competition ratio” value worked out at 0.0607.
For HDHD5 C109 (UniProt Q9BXW7), the “log2 mean competition ratio” value was -0.127.
Consider HIBCH C336 (UniProt Q6NVY1), for which the “log2 mean competition ratio” value was -0.146.
Same read-out and setting: to HOXC10 C47 belongs 0.74.
As to HMGCR C708 (UniProt P04035), the “log2 mean competition ratio” value is -0.323.
For the target HK1 C628 (UniProt P19367), the “log2 mean competition ratio” value was -0.277.
Turning to HEATR5A C623 (UniProt Q86XA9), the “log2 mean competition ratio” value was -0.0731.
In the case of HDAC1 C408 (UniProt Q13547), the “log2 mean competition ratio” value stood at 0.202.
Take HBS1L C504 (UniProt Q9Y450): the “log2 mean competition ratio” value was -0.835.
HARS2 C225 (UniProt P49590): the “log2 mean competition ratio” value was -0.36.
Turning to GXYLT1 C123 (UniProt Q4G148), the “log2 mean competition ratio” value was found to be 0.201.
For HAUS5 C12 (UniProt O94927), the “log2 mean competition ratio” value amounted to 0.438.
Same read-out and setting: to HCFC1 C227 (UniProt P51610) belongs 0.511; to HMOX2 C127 (UniProt P30519), -0.136.
Regarding HNRNPM C676, the “log2 mean competition ratio” value is -0.0754.
HNRNPUL2 C538 (UniProt Q1KMD3): the “log2 mean competition ratio” value stood at 0.315.
With GTF2I C80 (UniProt P78347), the “log2 mean competition ratio” value was -0.304.
With GTF3C4 C788 (UniProt Q9UKN8), the “log2 mean competition ratio” value was determined as 0.0513.

The assay is the same for the next values; noted with them: 200 µM; treatment time: 4 h; cell line lysate: HEK293T.
Turning to HAUS6 C699 (UniProt Q7Z4H7), the “log2 mean competition ratio” value amounted to 0.312.
Take HERC5 C220 (UniProt Q9UII4): the “log2 mean competition ratio” value is -0.218.
Regarding HMGCS1 C12 (UniProt Q01581), the “log2 mean competition ratio” value was -0.0577.
Regarding HDHD5 C109 (UniProt Q9BXW7), the “log2 mean competition ratio” value was -0.398.
HIBCH C336 (UniProt Q6NVY1): the “log2 mean competition ratio” value was 0.201.
Regarding HOXC10 C47, the “log2 mean competition ratio” value stood at 0.369.
Take HMGCR C708 (UniProt P04035): the “log2 mean competition ratio” value worked out at 0.214.
HK1 C628 (UniProt P19367): the “log2 mean competition ratio” value was 0.218.
Regarding HEATR5A C623 (UniProt Q86XA9), the “log2 mean competition ratio” value was -0.142.
Consider HDAC1 C408 (UniProt Q13547), for which the “log2 mean competition ratio” value was 0.189.
On the same count and under the same terms, to HBS1L C504 (UniProt Q9Y450) belongs -0.095; to HARS2 C225 (UniProt P49590), -0.0487; to GXYLT1 C123 (UniProt Q4G148), 0.24.
Still for that read-out and setting: to HAUS5 C12 (UniProt O94927) belongs 0.0922.
In the case of HCFC1 C227 (UniProt P51610), the “log2 mean competition ratio” value is 0.166.
On to HMOX2 C127 (UniProt P30519), for which the “log2 mean competition ratio” value was -0.0919.
Regarding HNRNPM C676, the “log2 mean competition ratio” value came out at 0.0963.
For the target HNRNPUL2 C538 (UniProt Q1KMD3), the “log2 mean competition ratio” value was found to be 0.205.
On to GTF2I C80 (UniProt P78347), for which the “log2 mean competition ratio” value is 0.383.
With GTF3C4 C788 (UniProt Q9UKN8), the “log2 mean competition ratio” value came to 0.115.
